Results taken from patent EP0314008A2, “N-substituted aliphatic heterocyclic compounds able to facilitate the passage of active substances through physiological barriers” (priority 1987, dated 1989).

Tested on: skin taken from a "nude" mouse
Assay: skin permeability test in vitro, skin diffusion cell apparatus, passage of naproxen-Na
Conditions: compound at 1%, without naproxen - buffer alone

Q: For `CCCCCCCCCCCC(=O)N1CCSCC1` [Example 3, 4-lauroylthiomorpholide], which “F.U.a. 355.5 nm” value (3.0 hours) is on record?
A: 0.004 F.U.a.

Q: And the “F.U.a. 355.5 nm” value (6.0 hours)?
A: 0.002 F.U.a.

Q: What about the “F.U.a. 355.5 nm” value (7.0 hours) of the same compound?
A: 0.002 F.U.a.
